{"source": "patent US9617222B1", "about": "“Alkynyl indazole derivative and use thereof” (SENJU PHARMACEUTICAL CO., LTD., priority 2014, dated 2017)", "tested_on": "Human Retinal Microvascular Endothelial (hRMVE) Cells (hRMVEC)", "test": "Growth inhibition of hRMVE cells under VEGF stimulation (MTT assay)", "type": "cell-based", "settings": "recombinant human VEGF, 48 hours, read-out: Cell Growth Inhibition Activity", "protocol": "Culture and passage of human retinal microvascular endothelial cells (Cell Systems Corporation, Human Retinal Microvascular Endothelial Cells, catalog number: ACBRI 181) were carried out according to the attached protocol. An adhesion factor solution (Cell Systems Corporation, Attachment Factor) was added to a 96-well plate (Iwaki Glass Co., Ltd.), fitted well, and then removed, so that the wells were coated. Subsequently, cells (hRMVEC) which were suspended in CS-C medium (Cell Systems Corporation, CS-C medium kit, catalog number: CS-4Z0-500R) containing serum, growth factors and Culture Boost were seeded at a density of 2×10^3 cells/100 μL/well, and cultured at 37° C. under 5% CO2 for 1 day. After that, the medium was removed from the hRMVEC, washed with PBS twice, and then cultured in CS-C medium (Cell Systems Corporation, CS-C medium kit, catalog number: CS-4Z3-500R) containing 1% FBS and a growth factor for 6 hours. […]\nThe cell number was measured by MTT assay (DOJINDO LABORATORIES: Cell Counting Kit-8 was used), and the growth inhibition rate of hRMVEC by the compound was calculated from the following calculation equation. Cell growth inhibition rate (%)=100−100×(absorbance of well to which the VEGF and compound are added−absorbance of well to which no VEGF is added)/(absorbance of well to which VEGF is added−absorbance of well to which no VEGF is added) […]", "data": [{"smiles": "CNC(=O)c1ccccc1Sc1ccc2c(/C=C/c3ccccn3)n[nH]c2c1", "note": "[Compound A, 6-[2-(methylcarbamoyl)phenylsulfanyl]-3-E-[2-(pyridine-2-yl)ethenyl]indazole, reference compound]", "values": [{"measurement": "IC50", "result": 0.24, "unit": "nM"}]}]}
